Source: US5721210A, “Cyclic cell adhesion modulation compounds” (priority 1995, dated 1998)
Part of at least one peptide drawing is inferred or uncertain, most often the ends. Bridge positions count the residues as written; N and C are the ends. Square brackets hold non-standard residues; d marks the D form. Peptide text beside a SMILES is read from it. * marks the point of attachment. hArg = N=C(N)NCCCC[C@H](N)C(=O)O; Thz = O=C(O)[C@@H]1CSCN1; PhAc = O=C(Cc1ccccc1)*

test system: U937 cells (fibronectin receptor) adhering to fibronectin-coated wells; conditions: read-out: IC50 μM; U937 cells on fibronectin-coated wells, 60 min at 37° C.; concentration at which adhesion is inhibited to 50% of control

Q: For `CC(C)C[C@@H]1NC(=O)[C@@H](NC(=O)CN)CSSC[C@@H](C(N)=O)NC(=O)[C@@H]2CCCN2C(=O)[C@H](CO)NC(=O)[C@H](CC(=O)O)NC(=O)CNC(=O)[C@H](CCCNC(=N)N)NC1=O` [Peptide 2, GC*LRGDSPC*-NH2] (H-GCLRGDSPC-NH2; disulfide 2-9), which IC50 is on record?
A: 468 µM

Q: Which IC50 does the source give for `CC(C)C[C@@H]1NC(=O)[C@@H](NC(=O)CN)CSSC[C@@H](C(N)=O)NC(=O)[C@@H]2CCCN2C(=O)[C@H](CO)NC(=O)[C@H](CC(=O)O)NC(=O)CNC(=O)[C@H](CCCCNC(=N)N)NC1=O` [Peptide 3, GC*L(homoArg)GDSPC*NH2] (H-GCL[hArg]GDSPC-NH2; disulfide 2-9) here?
A: 1000 to 1500 µM

Q: Which IC50 does the source give for `N=C(N)NCCC[C@@H]1NC(=O)[C@H](Cc2ccc(O)cc2)NC(=O)[C@@H](N)CSSC[C@@H](C(N)=O)NC(=O)[C@@H]2CCCN2C(=O)[C@H](CO)NC(=O)[C@H](CC(=O)O)NC(=O)CNC1=O` [Peptide 30, C*YRGDSPC*-NH2] (H-CYRGDSPC-NH2; disulfide 1-8) here?
A: 1020 µM

Q: `N=C(N)NCCC[C@@H]1NC(=O)[C@@H](NC(=O)CNC(=O)CNC(=O)Cc2ccccc2)CSSC[C@@H](C(N)=O)NC(=O)[C@@H]2CSCN2C(=O)[C@H](Cc2ccccc2)NC(=O)[C@H](CC(=O)O)NC(=O)CNC1=O` [Peptide 87, (PhAc)-GGC*RGDF-(3-thioPro)C*-NH2] (PhAc-GGCRGDF[Thz]C-NH2; disulfide 3-9) was tested. Which IC50 did it give?
A: 117 µM
